Source: PubChem BioAssay AID686937 (Drosophila RNAi Screening Center, 2013)

Purpose: 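Genes in the fly needed for secretion of protein constitutively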 (primary screen)
System: Drosophila S2 cells expressing secreted horseradish peroxidase
Knock-down reagent: long dsRNA against Drosophila genes
Time to read-out: about 5.5 days (5 days dsRNA, then 12 h reporter induction)
Conditions: reporter expression induced after 5 days of dsRNA, read 12 h later; inducer not stated
Measurement: 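After 5 days of dsRNA and 12 h of reporter induction, medium peroxidase read by chemiluminescence and scored as per-plate z-score; higher values mean more reporter released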
Direction: z-score: higher = more reporter secreted into medium
The deposit covers about 23,000 reagents; shown is an unselected part of those that have a named target and a result. 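Reduced-secretion tags in replicate 1 do not always agree with the z-scores; no criterion for assigning the tags was given.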 Reagents against one gene are numbered here. A plus sign joins genes that one reagent is predicted to hit. Further read-outs or replicates are left out here. No sequences are given here. Not stated in the record: the amount of reagent.

z-score, replicate 1, by target and reagent
htl (heartless): #1 0.35
fuss (fussel): #1 0.35; #2 0.01
CG10916: #1 0.3
CG13738: #1 -0.91
CG3191: #1 0.2
CG15047: #1 0.39; #2 0.99
CG10353: #1 -0.55
CG15317: #1 0.35
CG17147: #1 0.45
synr (sayonara): #1 0.81
hbs (hibris): #1 0.51
CG34242: #1 -0.16
ohgt (ohgata): #1 0.47
CG30480: #1 0.23
Lk6 (Lk6 kinase): #1 -0.12; #2 -0.09
CG4679: #1 -0.23
Plzf (Promyelocytic leukemia zinc finger): #1 0.29
Lcp65Ab2 + Lcp65Ab1: #1 0.31; #2 0.19
klg (klingon): #1 0.8; #2 -0.37
CG13331: #1 0.39
SPE (Spatzle-Processing Enzyme): #1 0.2
pn (prune): #1 0.11
vtd (verthandi): #1 -0.37
CG30008: #1 0.2
CG9338: #1 0.47
schuy (schumacher-levy): #1 0.37
CG43896: #1 0.3; #2 0.24
stg (string): #1 -0.47
CG10866: #1 0.25
CG5217: #1 0.4
PolZ2 (DNA polymerase zeta subunit 2): #1 0.24
crc (cryptocephal): #1 -0.15
CR12842 (pseudo): #1 0.26
Ttc7 (Tetratricopeptide repeat domain 7): #1 0.24
Rdh1 (Retinol dehydrogenase 1): #1 0.2
CG12213: #1 -2.78; #2 -0.46
CG2147: #1 0.47
CG17198 + CG17197: #1 0.57; #2 0.54
CG31391: #1 0.2
CtsL3 (Cathepsin L3): #1 0.34
CG8854: #1 -0.15
plx (pollux): #1 0.23; #2 -1.24; #3 -1.33
su(r) (suppressor of rudimentary): #1 0.15
p38b (p38b MAP kinase): #1 -0.08
CG17777: #1 0.06
Gorab (Golgin, RAB6 interacting): #1 0.28

Entries listed so far whose target name begins with L or l:
z-score, replicate 1, by target and reagent
Lk6 (Lk6 kinase): #1 -0.12; #2 -0.09
Lcp65Ab2 + Lcp65Ab1: #1 0.31; #2 0.19
